Data published in publication PMC12040169 (PLOS Biology, 2025).
This is one part of the list.

These compounds were tested on T1, CTL2-GFP (C. trachomatis L2/434/Bu, GFP-expressing). Conditions: bulk GFP, single well; 28.5 h, 10 µM; inhibitor.
T1 construct: L2/434/Bu, GFP-expressing
Set-up: species or system HeLa; Intracellular C. trachomatis growth in HeLa cells, bulk GFP fluorescence relative to DMSO

Structure (SMILES)	% of control remaining [%]
c1ccc2c(c1)CCN(Cc1ncc[nH]1)C2 [CBK126402]	131.274
O=C(NCc1ccco1)C1(c2ccccc2)CCCC1 [CBK149539]	104.254
O=S(=O)(c1cc(Cl)sc1Cl)N1CCCCC1CO (stereo not shown) [CBK051422]	125.209
COc1ccc(CC(C(=O)Nc2ccc3nc[nH]c(=O)c3c2)c2ccccc2)cc1 (stereo not shown) [CBK285863]	128.003
CC12CCC(C(=O)O)(c3nc4c(ccc5ncccc54)nc31)C2(C)C (stereo not shown) [CBK269470]	131.884
O=C(NC1CCCC1)c1ccncc1 [CBK143916]	54.3477
C[C@H](Nc1nccnc1-c1ccco1)c1ccccc1 [CBK037032]	175.851
O=C(COc1ccccc1Cl)N/N=C/c1ccc(-c2ccccc2[N+](=O)[O-])o1 [CBK262782]	94.0818
COc1ccc(Sc2nc3ccccc3nc2C(F)(F)F)cc1OC [CBK093779]	159.327
COc1ccc(NC(=O)c2ccc(-c3cnc(Nc4ccc(N5CCOCC5)cc4)c4nccn34)cc2)cc1 [CBK091240]	182.182
COc1ccc(NC(=O)CSCc2cc(O)[nH]n2)cc1 [CBK268417]	101.082
Cc1cc(CNS(=O)(=O)N2CCCC2)c2[nH]c(C)c(C)c2c1 [CBK282772]	119.542
Cc1noc(C)c1CC(=O)N1CCC(c2ccccc2)C1 (stereo not shown) [CBK281959]	153.734
c1ccc(COc2nccnc2-c2ccccc2)cc1 [CBK106686]	146.672
Cn1c(=O)c2c(nc(SCC(=O)CSc3nc4c(c(=O)n(C)c(=O)n4C)n3C)n2C)n(C)c1=O [CBK267692]	148.798
CN(C)[C@@H]1CN(Cc2ccccn2)C[C@H]1c1cn(C)c2ccccc12 [CBK284582]	93.0562
O=C(CCc1ccccc1)NNC(=O)C1CC1c1ccccc1 (stereo not shown) [CBK261292]	98.4072
COc1nccnc1OC1CCN(CCc2c[nH]c3ccccc23)CC1 [CBK084261]	108.671
O=C1CC(c2ccccc2)c2c(n3ncnc3[nH]c2=O)N1 (stereo not shown) [CBK287912]	128.494
COc1cc2c(cc1OC)C(c1ccc(C(=O)O)cc1)NCC2 (stereo not shown) [CBK286738]	106.59
O=S(=O)(c1ccc(-c2ccccc2)cc1)N1CCCN(CCCO)CC1 [CBK063043]	124.982
Cc1cccc(-c2ccc(CC3(C(N)=O)CCN(C(=O)COc4ccccc4)CC3)cc2)c1 [CBK285797]	119.495
CC(C)(C)c1ccc(C(=O)N2CCC3(CC2)CC(=O)N(Cc2ccc(S(C)(=O)=O)cc2)C3=O)cc1 [CBK155018]	99.6907
CC(C)[C@@H](CO)Nc1nc(-c2occc2C=O)cnc1N [CBK063733]	223.275
CS(=O)(=O)c1ccc(-c2ccc(COC3CCN(C(=O)Cc4cccc(C(F)(F)F)c4)CC3)cn2)cc1 [CBK162231T]	86.0671
NCCCN(Cc1ccco1)C1CCCC1 [CBK268856]	98.2147
CCc1c(C(=O)NC(C)c2cccc(Cl)c2)cnc2cc(O)nn12 (stereo not shown) [CBK291243]	126.142

Structure (SMILES)	% of control remaining [%]
Cc1ccc(OCc2nc(C)c(C(=O)N3CCCC(C)C3)s2)cc1 (stereo not shown) [CBK305356]	101.675
CC(C)C(CNCc1cncnc1)c1ccnn1C (stereo not shown) [CBK304190]	134.632
CN1CCC(Cc2nc(-c3ccc(Cl)s3)n(CCO)n2)CC1 [CBK307025]	123.205
N#CCCCN1CCC(Oc2nccnc2OCc2cccnc2)CC1 [CBK083171]	111.998
COc1ccc(N2C(=O)c3ccc(C(=O)OCC(=O)c4ccccc4Cl)cc3C2=O)c([N+](=O)[O-])c1 [CBK265514]	123.332
O=C1COc2ccccc2C/C=C/CC2(CCN(C(=O)c3n[nH]c4ccccc34)CC2)CN1 [CBK292021]	125.278
CCCc1[nH]nc(O)c1Cc1cc(F)ccc1Br [CBK075031]	104.114
O=C(c1ccc(-c2nccnc2NCC2CC2)cc1)N1CCOCC1 [CBK036814]	107.334
O=C1C=C(N2CCC(CCC3CCN(C4=CC(=O)CCC4)CC3)CC2)CCC1 [CBK007126]	133.456
O=C(O)CSc1nc2ccccc2n1Cc1ccccc1 [CBK262411]	107.532
O=[N+]([O-])c1ccc(CN2CCC(Oc3cncc(OCc4ccc(Cl)c(Cl)c4)n3)C2)cc1 (stereo not shown) [CBK084426]	99.1941
COc1ccc2nc(-c3cccc(NC(=O)c4ccc(F)cc4)c3)cn2n1 [CBK287826]	122.853
CC1CC(C)CN(C(=O)Cn2c(=O)n(C)c3ncccc32)C1 (stereo not shown) [CBK283794]	151.466
COC1CCN(C2CCc3c(Cl)cc(Cl)cc32)CC1 (stereo not shown) [CBK304883]	120.126
CN(C)CC1COc2ccccc2CN1C(=O)Cc1ccccc1F (stereo not shown) [CBK285080]	121.795
OC[C@]1(c2ccccc2)CC[C@H](N2CCCC2)CC1 [CBK016010]	127.079
CCCC1CN(C)c2ccccc2C1=O (stereo not shown) [CBK023527]	135.985
COc1ccc(CCC(=O)NCC(c2cccs2)N2CCOCC2)cc1 (stereo not shown) [CBK304674]	90.724
O=S(=O)(c1ccccc1)N(Cc1cc2ccccc2nc1O)CC1CCCO1 (stereo not shown) [CBK269424]	104.928
CC(C)c1noc([C@@H]2Cc3[nH]cnc3CN2C(=O)Nc2ccccc2)n1 [CBK288969]	120.241
C=CCNC(=O)N[C@H]1CCN2C(=O)c3ccccc3NC(=O)[C@@H]2C1 [CBK289568]	100.32
COC(=O)c1c(C)oc2cc(Br)c(OCC(=O)c3ccc(Cl)cc3)cc12 [CBK264946]	126.266
Cc1ccnc(NCC2CCN(Cc3cc(=O)n4ccccc4n3)C2)c1 (stereo not shown) [CBK306003]	107.118
COc1ccc(/C(N)=N/OC(=O)Cc2ccc(Cl)cc2)cc1OC [CBK263272]	138.308
O=C(N[C@H]1CCCC[C@H]1N1CCCC1)N[C@H]1CCCC[C@H]1N1CCCC1 [CBK003419]	120.182
Cc1ccnc(NS(=O)(=O)c2ccc(NC(=O)c3cc(-c4ccc(Br)cc4)nc4ccccc34)cc2)n1 [CBK263650]	100
CN1CCC[C@@H]2[C@H]1[C@@H](c1ccc(F)cc1)CN2C(=O)c1ccccn1 [CBK283081]	120.533

Structure (SMILES)	% of control remaining [%]
COc1ccc(-n2ncc(-c3cccc(C(F)(F)F)c3)n2)cn1 [CBK112678]	134.608
COc1cccc(CN(Cc2ccco2)Cc2cnc(C)n2C)c1 [CBK282494]	99.1899
CCCOc1cccn2c(N(CC(=O)N(C)C)C(C)=O)c(CC)nc12 [CBK147850]	102.481
NS(=O)(=O)c1ccc(NS(=O)(=O)c2ccc(NC(=O)Nc3ccc(Cl)cc3)cc2)cc1 [CBK264902]	81.9123
CC(CC(=O)NC(c1ccc(F)cc1)c1nccn1C)n1cccn1 (stereo not shown) [CBK281454]	117.942
CSc1nc(NC(=O)c2cc(-c3ccccc3)oc2C)cc(N2CCNCC2)n1 [CBK050364T]	119.546
CSc1ccccc1C(=O)Nc1nccs1 [CBK288225]	125.219
Cc1ccc(C)c(C(=O)C2=C(O)C(=O)N(CCN(C)C)C2c2ccc(O)cc2)c1 (stereo not shown) [CBK265740]	150.511
CC(CN1CCOCC1)NS(=O)(=O)c1cccc(C(=O)N2CCCC2)c1 (stereo not shown) [CBK307053]	118.343
O=C(O)c1ccc(/C=N/NC(=O)c2ccco2)cc1 [CBK263569]	100
CCn1c(SCc2cc(Cl)c3c(c2)OCCO3)nnc1-c1ccc(OC)cc1 [CBK297086]	111.698
Cc1noc(C)c1S(=O)(=O)NCC(=O)N1CCOCC1 [CBK034476]	111.981
CCOC(=O)C1CCCN(CCC(=O)Nc2cc(C)cc(C)c2)C1 (stereo not shown) [CBK264284]	118.997
CCOc1ccc(-c2nc(CSc3n[nH]c(=O)n3CCc3ccccc3)cs2)cc1 [CBK296735]	134.739
O=C1NNC=Cc2c1cnc1nc(C(F)(F)F)nn21 [CBK288156]	139.029
O=C(NC1CCCN(c2ncccn2)C1)c1ccc(-c2ccc(F)cc2)s1 (stereo not shown) [CBK298337]	147.442
O=C(O)CCNC(=O)/C(=C/c1ccc(Cl)cc1)NC(=O)c1ccccc1 [CBK300484]	148.297
CNc1nc(Cn2ncc(N3CCCN(C)CC3)cc2=O)cs1 [CBK307446]	136.146
Cc1nc2c(c(=O)[nH]1)CCN(Cc1c(C)oc3ccccc13)C2 [CBK283994]	117.16
O=S(=O)(Nc1cccc2cccnc12)c1cccs1 [CBK043904]	144.997
CC(C)C(=O)Nc1cc2cccnc2nc1-c1cccc(C(F)(F)F)c1 [CBK073657]	115.61
CSc1ncc(Cl)c(C(=O)Nc2sc3c(c2C(=O)NC2CCS(=O)(=O)C2)CCC(C)C3)n1 (stereo not shown) [CBK268886]	156.602
O=C(CCn1c(C(F)(F)F)cc2cccnc21)NCc1ccncc1 [CBK284841]	99.8925
Cc1cc(CN(C)Cc2cnn(Cc3ccccc3)c2C)n[nH]1 [CBK283017]	119.946
CCOC(=O)c1[nH]c2ccccc2c1NC(=O)c1ccc(Br)cc1Cl [CBK160147]	110.673

Shown in CSV form: 3 of the compounds above.
Structure (SMILES),% of control remaining [%]
CSc1ccccc1C(=O)Nc1nccs1 [CBK288225],125.219
Cc1ccc(C)c(C(=O)C2=C(O)C(=O)N(CCN(C)C)C2c2ccc(O)cc2)c1 (stereo not shown) [CBK265740],150.511
O=C(O)CCNC(=O)/C(=C/c1ccc(Cl)cc1)NC(=O)c1ccccc1 [CBK300484],148.297

Looked up above.
In % of control remaining [%], COc1ccc(/C(N)=N/OC(=O)Cc2ccc(Cl)cc2)cc1OC [CBK263272] has 138.308
In % of control remaining [%], COc1nccnc1OC1CCN(CCc2c[nH]c3ccccc23)CC1 [CBK084261] has 108.671
